Reference: article PMC7819943, “Rice protein-binding microarrays: a tool to detect cis-acting elements near promoter regions in rice”
This is one part of the list.

target: T1, OsSMF1 (Oryza sativa, UniProt Q6ZLB0 1-436); assay: protein-binding microarray (RPBM); PBS, 2% BSA, 51.3 ng/ul salmon testes DNA, 50 uM zinc acetate, 200 nM TF, 25 C, 1 h; high values mean tight binding; conditions: protein: recombinant; tags: N-terminal polyhistidine and DsRed monomer fusion (pET32a); chain copies: 2; label: CyDye5-dUTP incorporated in the synthesized complementary strand; 3' TTTTT single-stranded linker to array surface; dsDNA, one strand shown
T1 sequence: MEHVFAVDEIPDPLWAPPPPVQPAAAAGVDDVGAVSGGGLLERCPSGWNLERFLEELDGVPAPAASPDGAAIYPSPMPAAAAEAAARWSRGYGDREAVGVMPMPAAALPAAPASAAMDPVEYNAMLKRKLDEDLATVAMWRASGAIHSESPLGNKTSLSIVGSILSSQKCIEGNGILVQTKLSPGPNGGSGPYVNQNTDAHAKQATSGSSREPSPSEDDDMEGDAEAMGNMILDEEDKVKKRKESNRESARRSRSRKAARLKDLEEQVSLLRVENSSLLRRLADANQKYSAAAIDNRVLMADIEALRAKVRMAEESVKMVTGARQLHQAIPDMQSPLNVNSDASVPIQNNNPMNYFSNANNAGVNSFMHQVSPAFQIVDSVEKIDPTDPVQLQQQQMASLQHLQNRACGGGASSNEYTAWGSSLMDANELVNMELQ
Outline: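 Binding signal is reported as fluorescence intensity per feature (arbitrary units) from an Axon 4000B scanner. Incubation used 200 nM of each Ni–NTA-purified, N-terminally polyhistidine- and DsRed-fused transcription factor from E. coli BL21-CodonPlus on a double-stranded custom Agilent array for 1 h at 25 °C, with 50 µM zinc acetate in the buffer, followed by washing.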

In order of falling binding signal:
1. ATCAAGGCTCACCGGATTCGAGCCCAATACGGACTCTGCTCGGAGTCACCTAGTGCAG  36100 fluorescence intensity (a.u.)
2. GCGATTGCGTCGACTCCACCAATGGTGTCGGATACCGCTGCGGAGTCACCTAGTGCAG  35300 fluorescence intensity (a.u.)
3. GGTGGTAAAATTAACATGCAAATCTATGTGAGTACTTTGGCGGAGTCACCTAGTGCAG  27300 fluorescence intensity (a.u.)
4. GAGCTACATGTTGTATTCCAGATCGCCAGACACGCATGCACGGAGTCACCTAGTGCAG  25300 fluorescence intensity (a.u.)
5. CGTCGCCGCAGTTTAATTGGCAGCTCACACACGCACGAGCCGGAGTCACCTAGTGCAG  24500 fluorescence intensity (a.u.)
6. ACATCCTGAGGCATAAATAGCAGAAAACCACAAGTCGGGCCGGAGTCACCTAGTGCAG  23800 fluorescence intensity (a.u.)
7. ATACACACTACATATATGAATGATTCAGTATGCATCCGTCCGGAGTCACCTAGTGCAG  21600 fluorescence intensity (a.u.)
8. TTATTTGGTGCGTGCGTACAAGACCAAAACCGTACGACAACGGAGTCACCTAGTGCAG  18600 fluorescence intensity (a.u.)
9. CGCACTTCCGTCGCCTCCCCGCATCGCGTCGTACAACGGGCGGAGTCACCTAGTGCAG  18300 fluorescence intensity (a.u.)
10. TAAAATCTTGCTCTCTTCTAATATGATGACGTGTAATTTTCGGAGTCACCTAGTGCAG  17600 fluorescence intensity (a.u.)
11. CCATGGCCACACAACAAAGAACTCAAGAAGCAATTAACATCGGAGTCACCTAGTGCAG  17500 fluorescence intensity (a.u.)
12. CCGCCTGACACGTGTAAGAGCAAGTTTAATAGTATAGCCCCGGAGTCACCTAGTGCAG  13800 fluorescence intensity (a.u.)
13. GGAATCTTGTGATAAACTTATAAAATCATGAATTCCTTCACGGAGTCACCTAGTGCAG  12400 fluorescence intensity (a.u.)
14. CTCCACGGATCCGCGCTCAGGCCACGTCGACACGGTCCCCCGGAGTCACCTAGTGCAG  9080 fluorescence intensity (a.u.)
15. TCGCTGCATGAGCCCATGGCGGACACGTCGCCTCGCCACCCGGAGTCACCTAGTGCAG  7180 fluorescence intensity (a.u.)
16. GGACAGTCATGCACAACGCAAACGGCGACACGTAAGTTTTCGGAGTCACCTAGTGCAG  6800 fluorescence intensity (a.u.)
17. AGTTTACTCCAGCTTCTTAACTTCTTGATACTGACTCACACGGAGTCACCTAGTGCAG  5710 fluorescence intensity (a.u.)
18. AAACCCGCCCAGATCCTACTGAATTGCGTCATCCCACGATCGGAGTCACCTAGTGCAG  5290 fluorescence intensity (a.u.)
19. CGTGGGTCGTGGTGATGACATCTTGTATTCCTTTTCACTACGGAGTCACCTAGTGCAG  4700 fluorescence intensity (a.u.)
20. CCTCGCCTTGCCTCGCTGCGTCACCAACCTTGACGGCGACCGGAGTCACCTAGTGCAG  4660 fluorescence intensity (a.u.)
21. CCGTCGTCTTCACCTTCGCCACCGTCACCGCCGCCGCCGCCGGAGTCACCTAGTGCAG  4440 fluorescence intensity (a.u.)
22. ATACGTGCCAAGTTTTACTGATTATATCACTTATTAATTTCGGAGTCACCTAGTGCAG  4430 fluorescence intensity (a.u.)
23. TAGTAGTAGAAGGACTTGAGTTGGCCAACTATCCGGTAATCGGAGTCACCTAGTGCAG  4360 fluorescence intensity (a.u.)
24. TAGTAGTAGTCTACTATATCCGCAGCGTGAGTGCGTGACGCGGAGTCACCTAGTGCAG  4280 fluorescence intensity (a.u.)
25. AATTCTTTCTATATGGGTCTCACTTACTCATGGGTGTCACCGGAGTCACCTAGTGCAG  4280 fluorescence intensity (a.u.)
26. GAATCTACGAGATTTGGATATTTGGATATTTTCCTTCTGACGGAGTCACCTAGTGCAG  4190 fluorescence intensity (a.u.)
27. CCGCTCCCCGTCATTCTCACACCAAACATCTCCATCTCAACGGAGTCACCTAGTGCAG  4100 fluorescence intensity (a.u.)
28. GTTGTATATGTAATTGATGATGCACTGTCTGAACTTCAGACGGAGTCACCTAGTGCAG  4040 fluorescence intensity (a.u.)
29. GATGAACCTAAGTGACACCGCAGTCCAAGTCACCAGTGTACGGAGTCACCTAGTGCAG  3890 fluorescence intensity (a.u.)
30. TCCAACGGCTGGAGGTGGGAGACGACCGACAGGTGGGGCCCGGAGTCACCTAGTGCAG  3880 fluorescence intensity (a.u.)
31. TCTCCTCGTTGGCCTTGACGGTGATGACGCCCTCTCAACGCGGAGTCACCTAGTGCAG  3750 fluorescence intensity (a.u.)
32. TCTCTCTCTCGTGCGTCACCTCCTCGCGTGCTCAGCGCCGCGGAGTCACCTAGTGCAG  3690 fluorescence intensity (a.u.)
33. ATCTCTCATAAATAGAGGGGCGTGCCTGTTGTAATCGCATCGGAGTCACCTAGTGCAG  3680 fluorescence intensity (a.u.)
34. TTGTGATCAATTCGTCAAATTTGTAATTACTTCATCCTGACGGAGTCACCTAGTGCAG  3650 fluorescence intensity (a.u.)
35. AAACGATAATATACCTTGTATAGTCATCCAACTCTTATTTCGGAGTCACCTAGTGCAG  3630 fluorescence intensity (a.u.)
36. TCAAGTAGCTAATAATGTGGTTCTGTCATTTGTAGTTTTGCGGAGTCACCTAGTGCAG  3570 fluorescence intensity (a.u.)
37. AGTCGCACATGTCCCACAAAACCACGTGAGTTTCCGTCAGCGGAGTCACCTAGTGCAG  3470 fluorescence intensity (a.u.)
38. GCTTCCAATGCCACGCCGAGGAACCTCATATGTACCAGTTCGGAGTCACCTAGTGCAG  3430 fluorescence intensity (a.u.)
39. GCCATGACCATGTTCTCTTCTCCGTGGTAGGAGTATACTGCGGAGTCACCTAGTGCAG  3420 fluorescence intensity (a.u.)
40. TTGGATAGGTAGGAACGGATCATCTCATTCCATCCACGTCCGGAGTCACCTAGTGCAG  3390 fluorescence intensity (a.u.)
41. CACCTTCTGCCATCGATCGCTAGGCAAGAAGCTAAGCTAGCGGAGTCACCTAGTGCAG  3320 fluorescence intensity (a.u.)
42. TCAGAATGCGTGTGATGTAAAAGTTCGAGAAGACTTTGTTCGGAGTCACCTAGTGCAG  3210 fluorescence intensity (a.u.)
